Experimental data published in PubChem BioAssay AID214 (DTP/NCI, 2004).
The list does not hold the whole screen: it gathers tests that were run many times, whatever their T/C, doses with no T/C, and many T/C values between a quarter and a half above the control. Other doses and runs of a compound stand elsewhere. T/C gives the treated animals as a percentage of the vehicle group. Schedules are NCI's codes, taken here to give the interval after Q, in days (D) or hours (H), and the number of doses after X. Some T/C values are followed by the survivors on the day toxicity was checked, most often the fifth; where none is given, no animal had died by that day. Some doses were run more than once; the values are given in rising order. Brackets with × give the number of equal values in this list. Some doses have a count of surviving animals in place of a T/C: the source holds a T/C of zero for them, seemingly a mark for toxic or unscored doses. Survivors were counted at the toxicity check, usually on the fifth day, unless a day is given; later deaths do not show.

Tested on: B6C3F1 mice, colon carcinoma 38 s.c., T/C
Assay: NCI In Vivo Anticancer Drug Screen. Data for tumor model Colon Carcinoma 38 (subcutaneous) in B6C3F1 mice
Details: higher T/C = larger tumour
Experimental: The antitumor activity of compounds was measured in mice bearing transplantable tumors. Survival or tumor size were measured and the results are expressed as the measurement made in the treated group (T) divided by the measurement made in the vehicle treated control group (C). The tumor model used in this assay is Colon Carcinoma 38 (subcutaneous) in B6C3F1 mice

[1] = T/C endpoint: median tumor weight (est.), dose: 400.0 mg/kg/injection, schedule: Q07DX002 (ip), vehicle: saline with Tween-80
[2] = T/C endpoint: median tumor weight (est.), dose: 400.0 mg/kg/injection, schedule: Q07DX002 (ip), vehicle: suspension in saline
[3] = T/C endpoint: median tumor weight (est.), dose: 200.0 mg/kg/injection, schedule: Q07DX002 (ip), vehicle: saline with Tween-80, evaluated on day 20
[4] = T/C endpoint: median tumor weight (est.), dose: 400.0 mg/kg/injection, schedule: Q07DX002 (ip), vehicle: saline
[5] = T/C endpoint: median tumor weight (est.), dose: 200.0 mg/kg/injection, schedule: Q07DX002 (ip), vehicle: saline

## N[C@@H](Cc1ccc(N(CCCl)CCCl)cc1)C(=O)O
T/C endpoint: median tumor weight (est.), dose: 2.5 mg/kg/injection, schedule: Q07DX002 (ip), vehicle: saline, evaluated on day 20
  T/C: 31, 46, 53, 80, 83, 85, 109 % of control
T/C endpoint: median tumor weight (est.), dose: 5.0 mg/kg/injection, schedule: Q07DX002 (ip), vehicle: saline, evaluated on day 20
  T/C: 26, 27 [9 of 10 alive on day 20], 32, 46, 63, 108 % of control
T/C endpoint: median tumor weight (est.), dose: 10.0 mg/kg/injection, schedule: Q07DX002 (ip), vehicle: saline, evaluated on day 20
  T/C: 1, 7 [7 of 10 alive on day 20], 18, 49 [9 of 10 alive on day 20], 54 % of control
T/C endpoint: median tumor weight (est.), dose: 10.0 mg/kg/injection, schedule: Q07DX002 (ip), vehicle: saline
  survivor count: 3 of 10 on day 20
T/C endpoint: median tumor weight (est.), dose: 10.0 mg/kg/injection, schedule: Q07DX002 (ip), vehicle: suspension in saline
  survivor count: 0 of 10 on day 20
T/C endpoint: median tumor weight (est.), dose: 20.0 mg/kg/injection, schedule: Q07DX002 (ip), vehicle: saline, evaluated on day 20
  T/C: 1 [8 of 10 alive on day 20], 10, 16 % of control [7 of 10 alive on day 20]
T/C endpoint: median tumor weight (est.), dose: 20.0 mg/kg/injection, schedule: Q07DX002 (ip), vehicle: saline
  survivor count: 0 of 10 on day 20 and 2 of 10 on day 20
T/C endpoint: median tumor weight (est.), dose: 20.0 mg/kg/injection, schedule: Q07DX002 (ip), vehicle: suspension in saline
  survivor count: 0 of 10 on day 20 and 1 of 10 on day 20
T/C endpoint: median tumor weight (est.), dose: 40.0 mg/kg/injection, schedule: Q07DX002 (ip), vehicle: saline
  survivor count: 0 of 10 on day 20 and 1 of 10 on day 20
T/C endpoint: median tumor weight (est.), dose: 40.0 mg/kg/injection, schedule: Q07DX002 (ip), vehicle: suspension in saline
  survivor count: 0 of 10 on day 20

## ClCc1ccc2ccccc2n1
[1]
  survivor count: 0 of 10 on day 20
T/C endpoint: median tumor weight (est.), dose: 800.0 mg/kg/injection, schedule: Q07DX002 (ip), vehicle: saline with Tween-80
  survivor count: 0 of 10 on day 20

## O=S(=O)([O-])c1ccc(-c2c3nc(c(-c4ccc(S(=O)(=O)[O-])cc4)c4ccc([n-]4)c(-c4ccc(S(=O)(=O)[O-])cc4)c4nc(c(-c5ccc(S(=O)(=O)[O-])cc5)c5ccc2[n-]5)C=C4)C=C3)cc1.[Mn+3].[Na+]
T/C endpoint: median tumor weight change, dose: 767.0 mg/kg/injection, schedule: Q07DX002 (iv), vehicle: water, evaluated on day 28
  T/C: 138 % of control

## CCn1cnc2c(=S)nc[nH]c21
[2]
  survivor count: 5 of 10 on day 20

## COC1C(CO)OC(n2cnc3c(=S)nc(N)[nH]c32)C1O (stereo not drawn)
T/C endpoint: median tumor weight (est.), dose: 1600.0 mg/kg/injection, schedule: Q07DX002 (ip), vehicle: Klucel (hydroxypropylcellulose) (HPC)
  survivor count: 6 of 10 on day 20

## CSCS(=O)C[C@H](CO)NC(=O)/C=C/c1c(C)[nH]c(=O)[nH]c1=O (stereo partly drawn)
T/C endpoint: median tumor weight (est.), dose: 8.0 mg/kg/injection, schedule: Q07DX002 (ip), vehicle: saline
  survivor count: 3 of 10 on day 20
T/C endpoint: median tumor weight (est.), dose: 16.0 mg/kg/injection, schedule: Q07DX002 (ip), vehicle: saline
  survivor count: 0 of 10 on day 20
T/C endpoint: median tumor weight (est.), dose: 32.0 mg/kg/injection, schedule: Q07DX002 (ip), vehicle: saline
  survivor count: 0 of 10 on day 20

## CCCCCc1cc(O)c2c(c1)OC(C)(C)[C@@H]1CCC(C)=C[C@@H]21
T/C endpoint: median tumor weight (est.), dose: 100.0 mg/kg/injection, schedule: Q07DX002 (ip), vehicle: other, evaluated on day 20
  T/C: 130 % of control [9 of 10 alive on day 20]
T/C endpoint: median tumor weight (est.), dose: 800.0 mg/kg/injection, schedule: Q07DX002 (ip), vehicle: other
  survivor count: 4 of 10 on day 20
T/C endpoint: median tumor weight (est.), dose: 1600.0 mg/kg/injection, schedule: Q07DX002 (ip), vehicle: other
  survivor count: 0 of 10 on day 20

## O=C1SC(c2ccccc2)=S=C1c1ccccc1
T/C endpoint: median tumor weight (est.), dose: 1600.0 mg/kg/injection, schedule: Q07DX002 (ip), vehicle: saline with Tween-80
  survivor count: 4 of 10 on day 20

## CN(C)c1nc(N(C)C)nc(N(C)C)n1
T/C endpoint: median tumor weight (est.), dose: 25.0 mg/kg/injection, schedule: Q07DX002 (ip), vehicle: saline with Tween-80, evaluated on day 20
  T/C: 138 % of control
T/C endpoint: median tumor weight (est.), dose: 50.0 mg/kg/injection, schedule: Q07DX002 (ip), vehicle: saline with Tween-80, evaluated on day 20
  T/C: 63, 77 [9 of 10 alive on day 20], 83, 96, 104, 106, 111, 113, 114, 178 % of control
T/C endpoint: median tumor weight (est.), dose: 100.0 mg/kg/injection, schedule: Q07DX002 (ip), vehicle: saline with Tween-80, evaluated on day 20
  T/C: 33, 68, 69, 89, 90 (2×), 97, 118, 137, 164 % of control
[3]
  T/C: 47, 56 (2×), 58, 63 (2×), 72 [9 of 10 alive on day 20], 74 [9 of 10 alive on day 20], 77, 98 % of control
T/C endpoint: median tumor weight (est.), dose: 400.0 mg/kg/injection, schedule: Q07DX002 (ip), vehicle: saline with Tween-80, evaluated on day 20
  T/C: 26 [8 of 10 alive on day 20], 34 [9 of 10 alive on day 20], 35 [8 of 10 alive on day 20], 62, 63, 70, 72, 76 % of control [8 of 10 alive on day 20]
[1]
  survivor count: 3 of 10 on day 20

## Cc1ccc(NCCN(C)C)c2c(=O)c3cc(O)ccc3sc12
T/C endpoint: median tumor weight (est.), dose: 100.0 mg/kg/injection, schedule: Q07DX002 (ip), vehicle: Klucel (hydroxypropylcellulose) (HPC), evaluated on day 20
  T/C: 140 % of control
T/C endpoint: median tumor weight (est.), dose: 400.0 mg/kg/injection, schedule: Q07DX002 (ip), vehicle: Klucel (hydroxypropylcellulose) (HPC)
  survivor count: 2 of 10 on day 20

## CCCCCC1c2cc(O)ccc2OC1N1CCOCC1 (stereo not drawn)
[3]
  T/C: 127 % of control

## N=c1c(C(=O)OCc2ccccc2)ncc(CCl)n1O
[3]
  T/C: 127 % of control

## O=c1[nH]cc(F)c(=O)[nH]1
T/C endpoint: median tumor weight (est.), dose: 8.7 mg/kg/injection, schedule: Q07DX002 (ip), vehicle: saline, evaluated on day 20
  T/C: 11 [9 of 10 alive on day 20], 79, 84, 98, 133, 176 % of control
T/C endpoint: median tumor weight (est.), dose: 17.5 mg/kg/injection, schedule: Q07DX002 (ip), vehicle: saline, evaluated on day 20
  T/C: 33, 36, 55 [9 of 10 alive on day 20], 103, 109, 126, 165 % of control
T/C endpoint: median tumor weight (est.), dose: 35.0 mg/kg/injection, schedule: Q07DX002 (ip), vehicle: saline, evaluated on day 20
  T/C: 30, 33, 33 [8 of 10 alive on day 20], 44, 58, 72 [9 of 10 alive on day 20], 120 % of control
T/C endpoint: median tumor weight (est.), dose: 70.0 mg/kg/injection, schedule: Q07DX002 (ip), vehicle: saline, evaluated on day 20
  T/C: 1, 16, 24, 29, 32, 38, 47 % of control
T/C endpoint: median tumor weight (est.), dose: 140.0 mg/kg/injection, schedule: Q07DX002 (ip), vehicle: saline, evaluated on day 20
  T/C: 3, 4 [8 of 10 alive on day 20], 4 % of control [9 of 10 alive on day 20]
T/C endpoint: median tumor weight (est.), dose: 140.0 mg/kg/injection, schedule: Q07DX002 (ip), vehicle: saline
  survivor count: 2 of 10 on day 20, 5 of 10 on day 20, 6 of 10 on day 20

## CN(CCN(C)C(=O)CCOS(C)(=O)=O)C(=O)CCOS(C)(=O)=O
[4]
  survivor count: 4 of 10 on day 20

## O=C(O)C(O)C(O)C1[O][Sb][O]C1C(=O)O (stereo not drawn)
[5]
  survivor count: 0 of 10 on day 20

## S=P(N1CC1)(N1CC1)N1CC1
T/C endpoint: median tumor weight (est.), dose: 24.0 mg/kg/injection, schedule: Q07DX003 (ip), vehicle: saline
  survivor count: 1 of 10 on day 20

## Nc1nc(=S)c2ncn(C3CC(O)C(CO)O3)c2[nH]1 (stereo not drawn)
T/C endpoint: median tumor weight (est.), dose: 5.0 mg/kg/injection, schedule: Q07DX002 (ip), vehicle: saline with Tween-80, evaluated on day 20
  T/C: 12, 24 [9 of 10 alive on day 20], 31, 35, 45, 55 (2×), 56, 108, 181 % of control
T/C endpoint: median tumor weight (est.), dose: 10.0 mg/kg/injection, schedule: Q07DX002 (ip), vehicle: saline with Tween-80, evaluated on day 20
  T/C: 10, 11, 14, 27, 36 (2×), 52, 55, 88, 98 % of control
T/C endpoint: median tumor weight (est.), dose: 20.0 mg/kg/injection, schedule: Q07DX002 (ip), vehicle: saline with Tween-80, evaluated on day 20
  T/C: 12 (2×), 15, 27, 28, 35, 78, 79, 116 % of control [9 of 10 alive on day 20]
T/C endpoint: median tumor weight (est.), dose: 40.0 mg/kg/injection, schedule: Q07DX002 (ip), vehicle: saline with Tween-80, evaluated on day 20
  T/C: 3, 5, 9, 10, 12, 14 (2×), 18, 51, 57 % of control
T/C endpoint: median tumor weight (est.), dose: 80.0 mg/kg/injection, schedule: Q07DX002 (ip), vehicle: saline with Tween-80, evaluated on day 20
  T/C: 5 [8 of 10 alive on day 20], 6, 7, 15 (2×), 16, 22, 36 % of control [9 of 10 alive on day 20]
T/C endpoint: median tumor weight (est.), dose: 80.0 mg/kg/injection, schedule: Q07DX002 (ip), vehicle: saline with Tween-80
  survivor count: 6 of 10 on day 20
T/C endpoint: median tumor weight (est.), dose: 160.0 mg/kg/injection, schedule: Q07DX002 (ip), vehicle: saline with Tween-80, evaluated on day 20
  T/C: 1, 2, 5 [8 of 10 alive on day 20], 24 % of control [9 of 10 alive on day 20]
T/C endpoint: median tumor weight (est.), dose: 160.0 mg/kg/injection, schedule: Q07DX002 (ip), vehicle: saline with Tween-80
  survivor count: 6 of 10 on day 20

## CCC(C(=O)O)C(=O)O.[NH2-].[NH2-].[Pt+2]
[5]
  survivor count: 0 of 10 on day 20 and 4 of 10 on day 20
T/C endpoint: median tumor weight (est.), dose: 200.0 mg/kg/injection, schedule: Q07DX002 (ip), vehicle: suspension in saline
  survivor count: 2 of 10 on day 20
[4]
  survivor count: 0 of 10 on day 20 and 1 of 10 on day 20
[2]
  survivor count: 0 of 10 on day 20
